This assay has as its target T1, inhibitor of differentiation and DNA binding-1 (ID1) (UniProt P41134).
T1 sequence: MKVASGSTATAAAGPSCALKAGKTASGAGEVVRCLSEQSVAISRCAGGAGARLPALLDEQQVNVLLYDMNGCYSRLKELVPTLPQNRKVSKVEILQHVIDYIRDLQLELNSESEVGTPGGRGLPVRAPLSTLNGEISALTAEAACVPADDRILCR
Kind of assay: co-IP; 5 x 10^5 cells lysed in 100 mM TRIS/HCl pH 7.5, 150 mM NaCl, 1 mM MgCl2, 0.25% NP-40; precleared with rabbit serum and Agarose A/G-protein beads; immunoprecipitated with ID1 antibody (1:500) overnight at 4 °C; immunoblotted for c-MYC; normal mouse IgG as control antibody. In general terms: In western blotting, separated proteins are transferred to a membrane and probed.

By UniProt entry, the sequences of proteins in these tests, tags left out.
UniProt P01106: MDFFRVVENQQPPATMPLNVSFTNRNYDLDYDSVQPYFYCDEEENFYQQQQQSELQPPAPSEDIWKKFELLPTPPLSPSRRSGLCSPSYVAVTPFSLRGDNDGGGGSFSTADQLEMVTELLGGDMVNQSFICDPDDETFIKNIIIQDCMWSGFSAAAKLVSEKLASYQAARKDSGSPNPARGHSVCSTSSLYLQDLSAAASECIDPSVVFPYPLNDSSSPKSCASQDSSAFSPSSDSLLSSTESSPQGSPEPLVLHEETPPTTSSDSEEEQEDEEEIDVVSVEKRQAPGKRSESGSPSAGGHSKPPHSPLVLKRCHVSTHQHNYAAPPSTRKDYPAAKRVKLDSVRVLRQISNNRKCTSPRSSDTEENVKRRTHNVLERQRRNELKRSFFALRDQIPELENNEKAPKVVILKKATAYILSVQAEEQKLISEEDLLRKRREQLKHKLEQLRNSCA

No constants are given. Whether binding was seen depends on the method and setting. In cells and extracts the contact can be indirect. Some results given as binding are weak or reduced against the parent protein; the word gives no strength.

As to c-MYC (from UniProt P01106 1-454), the binding entry is on record as “binds”.

For the origin of these results see article PMC5701377.
